# Assay results taken from the supplement of paper PMC8728848.
# The other results are listed elsewhere or left out.
# How the values were obtained:
# Assay in all cases: glycan array binding signal (z-score within array); higher = stronger binding
# Details in all cases: glycan notation: IUPAC condensed, linker removed
# Gal6S(b1-4)Glc6S = target: Gal6S(b1-4)Glc6S
# In short: (§1)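 Arrays were curated from the Consortium for Functional Glycomics database, 3228 in total, and kept only where the protein sequence was available. Binding is expressed as a within-array Z-score. This score was averaged across arrays of the same protein sequence at different concentrations or buffers and across linkers, and negative values can be read as non-binding.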
# Gal6S(b1-4)GlcNAc = target: Gal6S(b1-4)GlcNAc
# In short: as §1
# Gal6S(b1-4)GlcNAc6S = target: Gal6S(b1-4)GlcNAc6S
# In short: as §1
# GalNAc(a1-3)Gal = target: GalNAc(a1-3)Gal
# In short: as §1
# GalNAc(a1-3)GalNAc = target: GalNAc(a1-3)GalNAc
# In short: as §1
# [1] = target: GalNAc(a1-3)GalNAc(a1-3)Gal(a1-4)Gal(b1-4)GlcNAc
# In short: as §1
# [2] = target: GalNAc(a1-3)GalNAc(b1-3)Gal(a1-4)Gal(b1-4)Glc
# In short: as §1
# GalNAc(b1-3)Gal = target: GalNAc(b1-3)Gal
# In short: as §1
# [3] = target: GalNAc(b1-3)Gal(a1-4)Gal(b1-4)GlcNAc
# In short: as §1
# [4] = target: GalNAc(b1-3)Gal(a1-4)Gal(b1-4)GlcNAc(b1-3)Gal(b1-4)Glc
# In short: as §1
# [5] = target: GalNAc(b1-3)Gal(a1-6)Gal(b1-4)Glc
# In short: as §1
# GalNAc(b1-3)GalNAc = target: GalNAc(b1-3)GalNAc
# In short: as §1
# GalNAc(b1-3)GlcNAc = target: GalNAc(b1-3)GlcNAc
# In short: as §1
# GalNAc(b1-4)Gal(b1-4)Glc = target: GalNAc(b1-4)Gal(b1-4)Glc
# In short: as §1
# GalNAc(b1-4)GlcNAc = target: GalNAc(b1-4)GlcNAc
# In short: as §1
# [6] = target: GalNAc(b1-4)GlcNAc(b1-2)Man
# In short: as §1
# [7] = target: GalNAc(b1-4)GlcNAc(b1-2)Man(a1-3)[GalNAc(b1-4)GlcNAc(b1-2)Man(a1-6)]Man(b1-4)GlcNAc(b1-4)GlcNAc
# In short: as §1
# [8] = target: GalNAc(b1-4)GlcNAc(b1-3)GalNAc(b1-4)GlcNAc
# In short: as §1
# GalNAc(b1-4)GlcNAc6S = target: GalNAc(b1-4)GlcNAc6S
# In short: as §1
# GalNAc(b1-6)GalNAc = target: GalNAc(b1-6)GalNAc
# In short: as §1
# GalNAc3S(b1-4)GlcNAc = target: GalNAc3S(b1-4)GlcNAc
# In short: as §1
# GalNAc3S(b1-4)GlcNAc3S = target: GalNAc3S(b1-4)GlcNAc3S
# In short: as §1
# [9] = target: GalNAc3S(b1-4)[Fuc(a1-3)]GlcNAc
# In short: as §1
# GalNAc4S6S(b1-4)GlcNAc = target: GalNAc4S6S(b1-4)GlcNAc
# In short: as §1
# GalNAc6S(b1-4)GlcNAc = target: GalNAc6S(b1-4)GlcNAc
# In short: as §1
# Glc(a1-4)Glc = target: Glc(a1-4)Glc
# In short: as §1
# [10] = target: Glc(a1-4)Glc(a1-4)Glc(a1-4)Glc
# In short: as §1
# Glc(a1-6)Glc(a1-6)Glc = target: Glc(a1-6)Glc(a1-6)Glc
# In short: as §1
# [11] = target: Glc(a1-6)Glc(a1-6)Glc(a1-6)Glc
# In short: as §1
# Glc(b1-4)Glc = target: Glc(b1-4)Glc
# In short: as §1
# Glc(b1-6)Glc = target: Glc(b1-6)Glc
# In short: as §1
# GlcA(b1-3)Gal = target: GlcA(b1-3)Gal
# In short: as §1
# GlcA(b1-3)GlcNAc = target: GlcA(b1-3)GlcNAc
# In short: as §1
# GlcA(b1-6)Gal = target: GlcA(b1-6)Gal
# In short: as §1
# [12] = target: GlcA3S(b1-3)Gal(b1-4)GlcNAc(b1-2)Man
# In short: as §1
# [13] = target: GlcA3S(b1-3)Gal(b1-4)GlcNAc(b1-3)Gal(b1-4)Glc
# In short: as §1
# [14] = target: GlcNAc(a1-3)Gal(b1-4)GlcNAc
# In short: as §1
binder,measurement,setting,value
"SfaEH (Escherichia coli), Q1RDG5 (protein) LLCRNNQTGQVFNSGDTSFRVNVSPVVQYDKSISVLDLSQLVSCQNEDSTGQNYDYLKILKGSGFSPALDTKTYGRLDFTSRPTGYARQLPLQFDLQVTEAFYQYGVWKPFPAKLYLYPAPGVFGKVINNGDLLATLYVNKFSTKGQEAGERNFTWRFYATNDVYIQTGTCRVSSNNVKVDLPSYPGGPVTVPLTVRCDQTQSVSYTLSGPVTGSGNTVFANTAASGSGGVGIQLSDNVGPVPAGQPRSLGQVGSSPVSLGLKASYALTGQASPTPGAVQSVINVTFSYN",glycan array binding signal (z-score),Gal6S(b1-4)Glc6S,1.04
same,glycan array binding signal (z-score),Gal6S(b1-4)GlcNAc,-1.14
same,glycan array binding signal (z-score),Gal6S(b1-4)GlcNAc6S,0.134
same,glycan array binding signal (z-score),GalNAc(a1-3)Gal,0.611
same,glycan array binding signal (z-score),GalNAc(a1-3)GalNAc,0.831
same,glycan array binding signal (z-score),[1],0.006
same,glycan array binding signal (z-score),[2],-0.309
same,glycan array binding signal (z-score),GalNAc(b1-3)Gal,0.414
same,glycan array binding signal (z-score),[3],-0.067
same,glycan array binding signal (z-score),[4],0.127
same,glycan array binding signal (z-score),[5],-1.16
same,glycan array binding signal (z-score),GalNAc(b1-3)GalNAc,0.821
same,glycan array binding signal (z-score),GalNAc(b1-3)GlcNAc,0.005
same,glycan array binding signal (z-score),GalNAc(b1-4)Gal(b1-4)Glc,-0.244
same,glycan array binding signal (z-score),GalNAc(b1-4)GlcNAc,-0.125
same,glycan array binding signal (z-score),[6],-0.973
same,glycan array binding signal (z-score),[7],0.06
same,glycan array binding signal (z-score),[8],-0.039
same,glycan array binding signal (z-score),GalNAc(b1-4)GlcNAc6S,-0.303
same,glycan array binding signal (z-score),GalNAc(b1-6)GalNAc,-0.133
same,glycan array binding signal (z-score),GalNAc3S(b1-4)GlcNAc,-0.199
same,glycan array binding signal (z-score),GalNAc3S(b1-4)GlcNAc3S,0.153
same,glycan array binding signal (z-score),[9],2.28
same,glycan array binding signal (z-score),GalNAc4S6S(b1-4)GlcNAc,-1.12
same,glycan array binding signal (z-score),GalNAc6S(b1-4)GlcNAc,1
same,glycan array binding signal (z-score),Glc(a1-4)Glc,-0.104
same,glycan array binding signal (z-score),[10],-0.651
same,glycan array binding signal (z-score),Glc(a1-6)Glc(a1-6)Glc,-0.71
same,glycan array binding signal (z-score),[11],0.219
same,glycan array binding signal (z-score),Glc(b1-4)Glc,-0.406
same,glycan array binding signal (z-score),Glc(b1-6)Glc,-0.083
same,glycan array binding signal (z-score),GlcA(b1-3)Gal,-0.814
same,glycan array binding signal (z-score),GlcA(b1-3)GlcNAc,-0.542
same,glycan array binding signal (z-score),GlcA(b1-6)Gal,-0.918
same,glycan array binding signal (z-score),[12],-0.31
same,glycan array binding signal (z-score),[13],-0.505
same,glycan array binding signal (z-score),[14],0.08

# Reformatted as tab-separated lines: entries from further up
binder	measurement	setting	value
SfaEH (Escherichia coli), Q1RDG5 (protein) LLCRNNQTGQVFNSGDTSFRVNVSPVVQYDKSISVLDLSQLVSCQNEDSTGQNYDYLKILKGSGFSPALDTKTYGRLDFTSRPTGYARQLPLQFDLQVTEAFYQYGVWKPFPAKLYLYPAPGVFGKVINNGDLLATLYVNKFSTKGQEAGERNFTWRFYATNDVYIQTGTCRVSSNNVKVDLPSYPGGPVTVPLTVRCDQTQSVSYTLSGPVTGSGNTVFANTAASGSGGVGIQLSDNVGPVPAGQPRSLGQVGSSPVSLGLKASYALTGQASPTPGAVQSVINVTFSYN	glycan array binding signal (z-score)	Gal6S(b1-4)GlcNAc6S	0.134
same	glycan array binding signal (z-score)	[6]	-0.973
same	glycan array binding signal (z-score)	[7]	0.06
same	glycan array binding signal (z-score)	GalNAc(b1-4)GlcNAc6S	-0.303
same	glycan array binding signal (z-score)	GalNAc3S(b1-4)GlcNAc3S	0.153
same	glycan array binding signal (z-score)	[10]	-0.651
